In the experiment the target is cynomolgus monkey CD27L (cynomolgus monkey). The experiment can be described thus: hybridoma supernatant cross-reactivity screen.

Here are results for 1 molecule from patent US20130078237A1 (Amgen, published 2013).

No constants are given. Whether binding was seen depends on the method and setting. Binding can be weak; no strength is given.

B1: Ab6 (antibody, human IgG1, lambda, V domains shown)
VH: QVQLVQSGAEVKKPGASVKVSCKASGYTFTSYGISWVRQAPGQGLEWMGWISAYNGYTHYAQKLQGRVTMTTDTSTSTAYMELRSLRSDDTAVYYCARDYGGNDYYGMDVWGQGTTVTVSS
VL: QSVLTQPPSASGTPGQRVTISCSGSSSNIGINYVYWYQQLPGTAPKLLIYRSDQRPSGVPDRFSGSKSGTSASLALSGLRSEDEADYYCAAWDDSLSGVVFGGGTKLTVLG
notes: Fully human IgG1 from XenoMouse hybridoma
Take B1: the binding result is “binds”.
